Source: patent publication US20180079819A1
These are yes or no findings as the source states them, for the method shown. Tags and fused reporters may be left off the sequences shown. Values belong to the binder of their own block, whether it stands above or below them.

Biological target: T1, extracellular domain of the control GMRα protein (residues 1-325), histidine tagged (UniProt P15509)
T1 sequence (looked up): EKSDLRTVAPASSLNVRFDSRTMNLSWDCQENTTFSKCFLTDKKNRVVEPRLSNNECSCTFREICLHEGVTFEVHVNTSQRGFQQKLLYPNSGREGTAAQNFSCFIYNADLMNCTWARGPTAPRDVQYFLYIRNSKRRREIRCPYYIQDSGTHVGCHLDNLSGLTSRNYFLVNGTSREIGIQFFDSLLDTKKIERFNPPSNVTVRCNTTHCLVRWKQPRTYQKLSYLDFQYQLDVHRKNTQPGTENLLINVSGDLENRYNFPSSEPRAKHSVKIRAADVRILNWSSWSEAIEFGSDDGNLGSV
Experiment: ELISA on plate-coated His-tagged protein, A450

binding: no binding (tested: 1e-7 M)
B1: chCD123-14 (antibody, V domains shown)
VH: EVKLVESGGDLVKPGGSLKLSCAASGFTFSNYAMSWVRQNSEKRLEWVATINSGGSFTYYPDSVKGRFTISRDNAKDSLYLQMSSLNSEDTAMYYCARQSEAYYGYDKRTWFAYWGQGTLVTVSS
VL: DILLTQSPAILSVSPGTRVSFSCRASQSVGTSIHWYQQRPNGFPRLLIKYASESISGIPSRFSGSGSGTDFTLNINSVESEDIADYYCQQSKSWPLTFGAGTKLELKR

binding: no binding (tested: 1e-7 M)
B2: chCD123-3 (antibody, human IgG1, V domains shown)
VH: EFQLQQSGPEVVKPGASVKMSCKASGYTFTSYVMHWMKQKPGQGLEWIGYIKPYKDGTKYNEKFKGKATLISDKPSSTAYMELSSLTSEDSAVYYCAREGENGYYDAMDYWGQGTSVTVSS
VL: DIQMTQSPSSLSASLGGKVTITCKASQDINKYIAWYQHKPGKGPRLLIHYTSTLQPGIPSRFSGSGSGRDYSFSISNLEPEDIATYYCLQYDNLLYTFGGGTKLELKR
